Test results reported in publication PMC12280010.
Results are given in words; binding and its absence hold for the method and conditions named. Binding seen in cells or lysates may run through a third protein. Some results given as binding are weak or reduced against the parent protein; the word gives no strength.

The chains behind the UniProt entries cited, without tags or fusion partners.
UniProt P55884: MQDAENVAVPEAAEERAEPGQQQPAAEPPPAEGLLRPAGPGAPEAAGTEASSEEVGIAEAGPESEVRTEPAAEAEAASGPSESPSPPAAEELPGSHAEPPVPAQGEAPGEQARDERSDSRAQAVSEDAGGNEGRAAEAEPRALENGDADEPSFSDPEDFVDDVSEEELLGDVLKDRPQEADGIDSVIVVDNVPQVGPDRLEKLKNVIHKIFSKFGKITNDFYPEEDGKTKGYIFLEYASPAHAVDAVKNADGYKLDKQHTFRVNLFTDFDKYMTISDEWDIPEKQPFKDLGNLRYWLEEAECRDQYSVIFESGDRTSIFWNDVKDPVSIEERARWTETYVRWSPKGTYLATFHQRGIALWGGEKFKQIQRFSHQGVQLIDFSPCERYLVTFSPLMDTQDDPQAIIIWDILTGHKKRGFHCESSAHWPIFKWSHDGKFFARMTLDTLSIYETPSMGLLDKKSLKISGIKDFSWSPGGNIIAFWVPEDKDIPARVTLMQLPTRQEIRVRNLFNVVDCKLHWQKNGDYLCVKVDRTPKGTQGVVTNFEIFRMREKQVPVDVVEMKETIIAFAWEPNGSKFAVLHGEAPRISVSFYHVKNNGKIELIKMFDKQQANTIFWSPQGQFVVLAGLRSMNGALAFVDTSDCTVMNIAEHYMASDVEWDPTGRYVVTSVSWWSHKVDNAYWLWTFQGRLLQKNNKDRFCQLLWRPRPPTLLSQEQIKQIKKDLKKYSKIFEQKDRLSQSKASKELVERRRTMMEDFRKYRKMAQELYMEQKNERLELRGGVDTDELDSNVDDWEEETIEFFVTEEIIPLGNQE
UniProt P40337: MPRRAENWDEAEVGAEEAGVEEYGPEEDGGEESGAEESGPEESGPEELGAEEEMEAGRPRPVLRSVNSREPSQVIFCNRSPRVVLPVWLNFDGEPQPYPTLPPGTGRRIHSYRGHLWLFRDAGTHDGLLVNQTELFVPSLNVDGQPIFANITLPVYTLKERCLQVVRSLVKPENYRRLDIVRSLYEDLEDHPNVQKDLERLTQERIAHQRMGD

Target: MAP2K2 (human (endogenous in AMC-HN-8 and TU212)) (UniProt P36507)
Experiment: co-IP; endogenous proteins in RIPA lysates of AMC-HN-8 and Tu212 cells; incubated overnight with anti-MAP2K2 or anti-VHL antibody (IgG as control), then beads; Western blot

Row | Substance | binding
1 | eukaryotic translation initiation factor 3 subunit B (from UniProt P55884 1-814) | binds
2 | von Hippel-Lindau (VHL) (from UniProt P40337 1-213) | binds
